PMC8938451
No constants are given. Whether binding was seen depends on the method and setting. Binding seen in cells or lysates may run through a third protein.

Target: RUFY2-FLAG (human)
Experiment: co-IP; lysates of HEK293T cells transfected with FLAG-tagged proteins, anti-FLAG magnetic agarose overnight at 4 °C (25 mM Tris-HCl pH 7.4, 0.15 M NaCl, 1 mM EDTA, 1% NP-40, 5% glycerol); immunoblot for endogenous ARL8A and ARL8B

binding: no binding
B1: ARL8A, endogenous (protein, UniProt Q96BM9 1-186)
chain: MIALFNKLLDWFKALFWKEEMELTLVGLQYSGKTTFVNVIASGQFNEDMIPTVGFNMRKITKGNVTIKLWDIGGQPRFRSMWERYCRGVSAIVYMVDAADQEKIEASKNELHNLLDKPQLQGIPVLVLGNKRDLPGALDEKELIEKMNLSAIQDREICCYSISCKEKDNIDITLQWLIQHSKSRRS
